{
  "sequences": {"note": "Sequences of proteins named here, by UniProt entry; tags and fusion partners are left off.", "UniProt Q04609, whole entry": "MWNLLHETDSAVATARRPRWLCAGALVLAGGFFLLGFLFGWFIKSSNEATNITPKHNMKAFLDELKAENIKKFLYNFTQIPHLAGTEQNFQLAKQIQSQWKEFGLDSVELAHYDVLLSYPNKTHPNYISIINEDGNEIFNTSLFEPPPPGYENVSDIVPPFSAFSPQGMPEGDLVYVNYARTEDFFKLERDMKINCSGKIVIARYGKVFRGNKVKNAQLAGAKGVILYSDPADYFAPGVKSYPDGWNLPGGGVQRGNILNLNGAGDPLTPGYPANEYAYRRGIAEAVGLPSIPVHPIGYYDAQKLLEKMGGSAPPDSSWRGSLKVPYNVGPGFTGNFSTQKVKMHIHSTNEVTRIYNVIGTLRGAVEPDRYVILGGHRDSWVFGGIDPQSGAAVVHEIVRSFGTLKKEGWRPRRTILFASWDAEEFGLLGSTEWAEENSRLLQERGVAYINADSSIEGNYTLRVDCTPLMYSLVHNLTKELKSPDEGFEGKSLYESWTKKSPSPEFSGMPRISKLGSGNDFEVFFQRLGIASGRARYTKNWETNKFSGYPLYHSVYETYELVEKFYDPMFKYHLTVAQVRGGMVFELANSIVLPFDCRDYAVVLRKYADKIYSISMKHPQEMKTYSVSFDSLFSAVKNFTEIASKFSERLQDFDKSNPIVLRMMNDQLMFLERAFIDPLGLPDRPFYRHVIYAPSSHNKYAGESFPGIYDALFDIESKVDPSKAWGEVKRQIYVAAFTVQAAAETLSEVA"},
  "source": "patent US12055546B2",
  "about": "“Fluorescent probe for detecting carboxypeptidase activity” (THE UNIVERSITY OF TOKYO, priority 2018, dated 2024)",
  "target": "PSMA (Homo sapiens, UniProt Q04609)",
  "assay": "Reactivity with PSMA purified enzyme (Example 6)",
  "type": "biochemical",
  "settings": "apparent dynamic parameter, Table 4",
  "note": "For at least one compound, name, drawing or mass did not settle the structure.",
  "data": [
    {"smiles": "O=C(O)CCC(NC(=O)N=Nc1ccc(C(=O)O)c(-c2c3ccc(=O)cc-3oc3cc(O)ccc23)c1)C(=O)O", "note": "(stereo not shown) [Compound 6-fluAFGlu]", "values": [
      {"measurement": "kcat/Km", "result": 200, "unit": "M⁻¹ s⁻¹"}
    ]}
  ]
}
